Publication doi:10.1101/2023.02.01.526449

What was measured:
[1] = target: T1, V5-TurboID fused to the lysosomal transmembrane protein TMEM192 (UniProt Q8IY95); assay: proximity labelling
T1 sequence: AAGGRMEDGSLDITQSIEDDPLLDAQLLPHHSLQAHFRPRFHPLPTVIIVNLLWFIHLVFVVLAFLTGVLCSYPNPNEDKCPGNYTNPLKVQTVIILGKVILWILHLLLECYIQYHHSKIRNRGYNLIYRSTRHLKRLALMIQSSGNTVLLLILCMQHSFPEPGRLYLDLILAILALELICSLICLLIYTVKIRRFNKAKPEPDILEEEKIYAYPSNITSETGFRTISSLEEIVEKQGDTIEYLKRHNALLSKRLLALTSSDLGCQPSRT

[2] = target: T1, V5-TurboID fused to the lysosomal transmembrane protein TMEM192; assay: proximity labelling; remark: listed apart in the source

binding [1]: no binding
binding [2]: no binding
B1: Pleckstrin Homology and RhoGEF Domain Containing G3 (protein, UniProt A1L390 1-1219)
chain: MPVSTSLHQDGSQERPVSLTSTTSSSGSSCDSRSAMEEPSSSEAPAKNGAGSLRSRHLPNSNNNSSSWLNVKGPLSPFNSRAAAGPAHHKLSYLGRVVREIVETERMYVQDLRSIVEDYLLKIIDTPGLLKPEQVSALFGNIENIYALNSQLLRDLDSCNSDPVAVASCFVERSQEFDIYTQYCNNYPNSVAALTECMRDKQQAKFFRDRQELLQHSLPLGSYLLKPVQRILKYHLLLQEIAKHFDEEEDGFEVVEDAIDTMTCVAWYINDMKRRHEHAVRLQEIQSLLINWKGPDLTTYGELVLEGTFRVHRVRNERTFFLFDKTLLITKKRGDHFVYKGNIPCSSLMLIESTRDSLCFTVTHYKHSKQQYSIQAKTVEEKRNWTHHIKRLILENHHATIPQKAKEAILEMDSYYPNRYRCSPERLKKAWSSQDEVSTNVRQGRRQSEPTKHLLRQLNEKARAAGMKGKGRRESESSRSSRRPSGRSPTSTEKRMSFESISSLPEVEPDPEAGSEQEVFSAVEGPSAEETPSDTESPEVLETQLDAHQGLLGMDPPGDMVDFVAAESTEDLKALSSEEEEEMGGAAQEPESLLPPSVLDQASVIAERFVSSFSRRSSVAQEDSKSSGFGSPRLVSRSSSVLSLEGSEKGLARHGSATDSLSCQLSPEVDISVGVATEDSPSVNGMEPPSPGCPVEPDRSSCKKKESALSTRDRLLLDKIKSYYENAEHHDAGFSVRRRESLSYIPKGLVRNSISRFNSLPRPDPEPVPPVGSKRQVGSRPTSWALFELPGPSQAVKGDPPPISDAEFRPSSEIVKIWEGMESSGGSPGKGPGQGQANGFDLHEPLFILEEHELGAITEESATASPESSSPTEGRSPAHLARELKELVKELSSSTQGELVAPLHPRIVQLSHVMDSHVSERVKNKVYQLARQYSLRIKSNKPVMARPPLQWEKVAPERDGKSPTVPCLQEEAGEPLGGKGKRKPVLSLFDYEQLMAQEHSPPKPSSAGEMSPQRFFFNPSAVSQRTTSPGGRPSARSPLSPTETFSWPDVRELCSKYASRDEARRAGGGRPRGPPVNRSHSVPENMVEPPLSGRVGRCRSLSTKRGRGGGEAAQSPGPLPQSKPDGGETLYVTADLTLEDNRRVIVMEKGPLPSPTAGLEESSGQGPSSPVALLGQVQDFQQSAECQPKEEGSRDPADPSQQGRVRNLREKFQALNSVG

Like-named read-outs stand apart in the source and are kept apart here. Results are given in words; binding and its absence hold for the method and conditions named. In cells and extracts the contact can be indirect. These calls come from enrichment with a bait or labelling near it, and not all partners need be listed. No binding means not detected with the bait. Tags and fused reporters may be left off the sequences shown.
